No constants are given. Whether binding was seen depends on the method and setting. Some binding calls cover weakened binding; strength is not graded here. Sequences can lack the tags named with a protein.
Target: mammalian diaphanous 1 (DIAPH1) (human (endogenous in HeLa)) (UniProt O60610)
Assay: ELISA; 384-well plates coated with anti-DIAPH1 antibody (62.5 ng/well), blocked with 3% BSA; DIAPH1 captured from HeLa cell lysate (10 ug/well, 3 h, room temperature), washed with PBS; GFP-ctRAGE (64.5 uM) added with test small molecules (10 uM; then four-point dose response 10, 1, 0.1, 0.01 uM) for 2 h at room temperature; read in an EnVision Multilabel Reader; only the binder purified

Sequences of proteins named here, by UniProt entry; tags and fusion partners are left off.
UniProt O60610: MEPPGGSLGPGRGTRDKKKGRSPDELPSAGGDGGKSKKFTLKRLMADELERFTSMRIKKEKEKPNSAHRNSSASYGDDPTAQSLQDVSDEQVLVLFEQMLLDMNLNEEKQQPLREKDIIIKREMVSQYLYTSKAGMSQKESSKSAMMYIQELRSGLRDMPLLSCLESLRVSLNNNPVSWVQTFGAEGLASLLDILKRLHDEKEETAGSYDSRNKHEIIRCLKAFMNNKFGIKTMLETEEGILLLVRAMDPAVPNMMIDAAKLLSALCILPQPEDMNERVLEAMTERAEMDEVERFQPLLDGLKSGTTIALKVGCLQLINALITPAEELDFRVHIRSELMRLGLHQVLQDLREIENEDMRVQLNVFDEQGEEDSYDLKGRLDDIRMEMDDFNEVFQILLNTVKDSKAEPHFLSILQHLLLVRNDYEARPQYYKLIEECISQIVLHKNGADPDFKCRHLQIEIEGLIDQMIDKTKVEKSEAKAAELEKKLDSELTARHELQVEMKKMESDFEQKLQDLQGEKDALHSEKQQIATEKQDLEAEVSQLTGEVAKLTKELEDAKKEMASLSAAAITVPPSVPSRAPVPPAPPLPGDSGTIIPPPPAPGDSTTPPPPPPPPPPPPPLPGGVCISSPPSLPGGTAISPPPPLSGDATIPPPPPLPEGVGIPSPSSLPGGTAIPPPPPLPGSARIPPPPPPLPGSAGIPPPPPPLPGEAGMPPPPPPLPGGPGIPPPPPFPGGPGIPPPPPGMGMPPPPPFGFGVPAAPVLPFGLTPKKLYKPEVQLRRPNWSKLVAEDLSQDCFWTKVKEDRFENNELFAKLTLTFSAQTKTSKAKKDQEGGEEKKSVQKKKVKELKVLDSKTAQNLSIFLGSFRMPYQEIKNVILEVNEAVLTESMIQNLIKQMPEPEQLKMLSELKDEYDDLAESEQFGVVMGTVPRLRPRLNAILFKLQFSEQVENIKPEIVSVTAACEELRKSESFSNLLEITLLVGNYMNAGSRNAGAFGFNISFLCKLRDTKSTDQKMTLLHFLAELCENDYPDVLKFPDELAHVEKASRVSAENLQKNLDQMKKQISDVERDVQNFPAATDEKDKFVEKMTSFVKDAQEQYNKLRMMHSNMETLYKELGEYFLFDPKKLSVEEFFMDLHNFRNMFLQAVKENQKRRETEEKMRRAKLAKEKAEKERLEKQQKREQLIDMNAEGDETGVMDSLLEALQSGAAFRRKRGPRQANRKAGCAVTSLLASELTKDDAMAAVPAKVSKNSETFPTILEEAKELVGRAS

- binding: binds
Binder: LWQRRQRRGEERKAPENQEEEEERAELNQSEEPEAGESSTGGP (domain or fragment) [GFP-labeled cytoplasmic domain of human RAGE (GFP-ctRAGE)]

Source: article PMC4776135, “Small Molecule Inhibition of Ligand-Stimulated RAGE-DIAPH1 Signal Transduction” (Scientific Reports, 2016)
